Results published in paper PMC8861116.
These are yes or no findings as the source states them, for the method shown. Binding seen in cells or lysates may run through a third protein. Some entries that bind do so weakly or less than the wild type.

The chains behind the UniProt entries cited, without tags or fusion partners. Where a name states a change or a piece, a line headed by the entry shows the natural chain unless it says otherwise.
UniProt Q13315: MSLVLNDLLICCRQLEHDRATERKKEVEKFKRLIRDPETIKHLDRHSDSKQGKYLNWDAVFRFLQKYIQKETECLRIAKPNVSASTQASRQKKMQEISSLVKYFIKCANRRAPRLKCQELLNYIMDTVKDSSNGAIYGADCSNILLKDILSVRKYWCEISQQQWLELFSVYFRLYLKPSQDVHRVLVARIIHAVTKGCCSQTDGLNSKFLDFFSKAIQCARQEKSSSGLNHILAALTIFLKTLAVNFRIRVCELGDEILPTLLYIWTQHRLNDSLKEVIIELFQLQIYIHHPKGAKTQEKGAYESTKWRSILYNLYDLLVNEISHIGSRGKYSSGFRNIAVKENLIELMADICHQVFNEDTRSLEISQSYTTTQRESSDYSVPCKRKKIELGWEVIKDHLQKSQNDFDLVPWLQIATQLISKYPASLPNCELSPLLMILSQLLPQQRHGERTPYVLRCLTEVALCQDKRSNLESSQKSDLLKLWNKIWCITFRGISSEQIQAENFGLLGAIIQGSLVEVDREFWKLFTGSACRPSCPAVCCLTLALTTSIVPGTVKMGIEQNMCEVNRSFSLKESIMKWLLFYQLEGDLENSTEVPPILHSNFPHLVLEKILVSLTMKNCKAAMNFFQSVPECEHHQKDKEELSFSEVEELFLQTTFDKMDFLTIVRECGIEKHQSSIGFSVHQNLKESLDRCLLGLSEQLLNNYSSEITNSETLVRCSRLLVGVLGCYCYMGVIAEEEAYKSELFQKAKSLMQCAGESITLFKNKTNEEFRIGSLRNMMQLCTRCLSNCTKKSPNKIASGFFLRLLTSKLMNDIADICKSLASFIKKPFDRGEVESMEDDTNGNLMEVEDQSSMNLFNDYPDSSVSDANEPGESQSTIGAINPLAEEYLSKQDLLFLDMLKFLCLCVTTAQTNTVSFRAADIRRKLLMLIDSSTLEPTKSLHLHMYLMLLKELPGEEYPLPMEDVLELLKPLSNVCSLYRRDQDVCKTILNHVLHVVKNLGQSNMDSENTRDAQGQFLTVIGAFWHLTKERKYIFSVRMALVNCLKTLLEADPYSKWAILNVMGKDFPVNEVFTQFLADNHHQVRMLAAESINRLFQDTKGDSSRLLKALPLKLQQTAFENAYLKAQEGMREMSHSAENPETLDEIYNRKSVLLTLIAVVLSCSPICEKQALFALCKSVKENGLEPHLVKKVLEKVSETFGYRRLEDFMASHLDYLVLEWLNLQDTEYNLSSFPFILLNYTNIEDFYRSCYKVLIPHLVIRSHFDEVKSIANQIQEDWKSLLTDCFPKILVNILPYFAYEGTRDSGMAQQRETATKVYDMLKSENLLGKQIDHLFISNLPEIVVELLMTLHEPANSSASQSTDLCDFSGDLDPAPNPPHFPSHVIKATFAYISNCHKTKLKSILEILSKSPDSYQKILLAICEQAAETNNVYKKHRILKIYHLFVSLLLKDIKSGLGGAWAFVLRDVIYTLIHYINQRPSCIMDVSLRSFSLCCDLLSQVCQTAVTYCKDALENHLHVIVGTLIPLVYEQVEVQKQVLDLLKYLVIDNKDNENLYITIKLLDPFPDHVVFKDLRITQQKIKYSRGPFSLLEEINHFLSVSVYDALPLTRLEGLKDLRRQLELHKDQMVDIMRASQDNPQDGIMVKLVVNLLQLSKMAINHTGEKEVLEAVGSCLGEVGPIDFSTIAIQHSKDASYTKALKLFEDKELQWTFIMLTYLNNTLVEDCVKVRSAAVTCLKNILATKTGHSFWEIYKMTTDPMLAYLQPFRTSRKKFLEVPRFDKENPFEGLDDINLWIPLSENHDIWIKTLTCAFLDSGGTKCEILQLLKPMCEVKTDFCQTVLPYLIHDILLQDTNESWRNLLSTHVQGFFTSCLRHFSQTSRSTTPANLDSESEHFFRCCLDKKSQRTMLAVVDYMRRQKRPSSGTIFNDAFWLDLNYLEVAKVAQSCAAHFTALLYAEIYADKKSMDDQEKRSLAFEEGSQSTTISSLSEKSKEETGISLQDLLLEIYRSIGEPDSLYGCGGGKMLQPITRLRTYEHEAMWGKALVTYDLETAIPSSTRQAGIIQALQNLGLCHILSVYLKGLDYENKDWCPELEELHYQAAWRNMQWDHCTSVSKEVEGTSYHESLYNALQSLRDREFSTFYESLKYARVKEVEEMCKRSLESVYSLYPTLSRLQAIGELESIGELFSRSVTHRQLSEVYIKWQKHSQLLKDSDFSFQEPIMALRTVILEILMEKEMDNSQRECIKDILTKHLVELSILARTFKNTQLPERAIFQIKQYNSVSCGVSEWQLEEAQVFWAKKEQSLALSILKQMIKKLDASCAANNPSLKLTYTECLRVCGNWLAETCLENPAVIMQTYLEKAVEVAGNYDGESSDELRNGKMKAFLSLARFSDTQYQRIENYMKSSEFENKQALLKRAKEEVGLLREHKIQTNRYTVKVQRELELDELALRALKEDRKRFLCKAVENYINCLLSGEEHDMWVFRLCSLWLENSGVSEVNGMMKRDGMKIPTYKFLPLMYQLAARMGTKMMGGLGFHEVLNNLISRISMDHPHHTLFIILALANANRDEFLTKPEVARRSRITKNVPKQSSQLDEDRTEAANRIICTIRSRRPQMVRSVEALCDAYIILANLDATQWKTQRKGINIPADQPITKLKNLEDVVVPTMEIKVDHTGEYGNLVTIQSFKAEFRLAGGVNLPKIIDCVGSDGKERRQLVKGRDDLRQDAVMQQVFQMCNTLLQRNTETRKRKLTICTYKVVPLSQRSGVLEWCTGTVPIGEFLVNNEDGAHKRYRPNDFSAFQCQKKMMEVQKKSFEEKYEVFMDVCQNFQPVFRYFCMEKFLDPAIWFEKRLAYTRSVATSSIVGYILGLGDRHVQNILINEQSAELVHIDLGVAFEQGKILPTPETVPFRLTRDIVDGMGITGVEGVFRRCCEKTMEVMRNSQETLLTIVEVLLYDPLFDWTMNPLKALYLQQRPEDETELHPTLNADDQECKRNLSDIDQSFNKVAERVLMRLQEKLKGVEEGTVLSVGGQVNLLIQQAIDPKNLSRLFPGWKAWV
UniProt O43684: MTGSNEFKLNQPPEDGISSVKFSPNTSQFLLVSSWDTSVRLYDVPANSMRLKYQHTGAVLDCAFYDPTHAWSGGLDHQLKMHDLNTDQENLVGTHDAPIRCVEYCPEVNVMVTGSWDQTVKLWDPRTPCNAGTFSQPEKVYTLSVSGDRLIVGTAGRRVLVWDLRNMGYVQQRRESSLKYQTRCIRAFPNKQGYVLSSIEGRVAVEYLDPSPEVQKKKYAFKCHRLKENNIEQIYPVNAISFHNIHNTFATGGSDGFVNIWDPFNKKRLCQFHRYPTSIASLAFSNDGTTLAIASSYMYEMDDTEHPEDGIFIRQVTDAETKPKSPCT
UniProt O43683: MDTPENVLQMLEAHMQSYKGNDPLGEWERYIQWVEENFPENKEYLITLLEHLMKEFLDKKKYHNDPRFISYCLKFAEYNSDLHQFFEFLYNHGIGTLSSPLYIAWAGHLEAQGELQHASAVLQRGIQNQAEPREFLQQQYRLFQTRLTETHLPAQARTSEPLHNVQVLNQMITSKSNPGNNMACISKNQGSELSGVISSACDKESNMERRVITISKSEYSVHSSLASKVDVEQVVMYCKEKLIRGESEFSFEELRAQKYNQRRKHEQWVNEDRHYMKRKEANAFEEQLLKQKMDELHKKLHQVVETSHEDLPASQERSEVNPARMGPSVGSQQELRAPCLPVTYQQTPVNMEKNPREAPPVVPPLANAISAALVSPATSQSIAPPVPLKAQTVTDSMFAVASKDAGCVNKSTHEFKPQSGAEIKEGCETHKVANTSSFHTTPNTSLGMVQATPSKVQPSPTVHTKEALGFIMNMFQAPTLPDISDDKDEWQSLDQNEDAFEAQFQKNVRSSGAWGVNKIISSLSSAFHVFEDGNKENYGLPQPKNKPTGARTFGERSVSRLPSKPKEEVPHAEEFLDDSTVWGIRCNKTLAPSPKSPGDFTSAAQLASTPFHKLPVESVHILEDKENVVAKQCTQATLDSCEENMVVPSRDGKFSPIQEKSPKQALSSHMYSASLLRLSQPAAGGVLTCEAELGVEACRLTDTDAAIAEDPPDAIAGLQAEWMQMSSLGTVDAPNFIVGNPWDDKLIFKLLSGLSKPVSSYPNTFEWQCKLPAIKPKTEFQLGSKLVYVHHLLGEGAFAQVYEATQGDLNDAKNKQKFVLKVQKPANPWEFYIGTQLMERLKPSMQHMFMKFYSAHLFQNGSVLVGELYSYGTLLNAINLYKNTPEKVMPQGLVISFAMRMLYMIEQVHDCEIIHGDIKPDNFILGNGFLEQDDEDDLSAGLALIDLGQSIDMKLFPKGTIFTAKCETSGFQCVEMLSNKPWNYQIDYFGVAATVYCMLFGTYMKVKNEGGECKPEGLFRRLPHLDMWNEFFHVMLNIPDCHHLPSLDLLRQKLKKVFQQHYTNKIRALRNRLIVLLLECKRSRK
UniProt P13010: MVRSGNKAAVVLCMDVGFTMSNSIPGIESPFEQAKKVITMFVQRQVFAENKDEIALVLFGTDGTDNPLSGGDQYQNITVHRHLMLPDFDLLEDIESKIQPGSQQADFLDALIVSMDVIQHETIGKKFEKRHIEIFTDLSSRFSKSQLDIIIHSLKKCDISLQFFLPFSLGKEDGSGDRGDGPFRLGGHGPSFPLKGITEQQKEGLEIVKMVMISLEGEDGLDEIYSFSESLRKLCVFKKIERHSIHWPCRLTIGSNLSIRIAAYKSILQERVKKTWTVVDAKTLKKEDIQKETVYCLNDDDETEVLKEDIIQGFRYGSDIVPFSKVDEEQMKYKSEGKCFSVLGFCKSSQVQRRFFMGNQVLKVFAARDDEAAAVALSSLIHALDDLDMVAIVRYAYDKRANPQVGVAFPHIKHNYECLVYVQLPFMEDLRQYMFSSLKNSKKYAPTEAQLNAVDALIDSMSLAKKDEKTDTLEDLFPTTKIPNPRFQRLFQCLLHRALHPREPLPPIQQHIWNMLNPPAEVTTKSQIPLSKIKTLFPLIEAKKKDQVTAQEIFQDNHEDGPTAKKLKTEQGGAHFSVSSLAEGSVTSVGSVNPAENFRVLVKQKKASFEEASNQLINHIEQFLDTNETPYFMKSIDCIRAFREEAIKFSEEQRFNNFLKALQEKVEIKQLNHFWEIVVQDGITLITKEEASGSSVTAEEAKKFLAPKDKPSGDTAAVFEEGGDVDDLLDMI
UniProt P12956: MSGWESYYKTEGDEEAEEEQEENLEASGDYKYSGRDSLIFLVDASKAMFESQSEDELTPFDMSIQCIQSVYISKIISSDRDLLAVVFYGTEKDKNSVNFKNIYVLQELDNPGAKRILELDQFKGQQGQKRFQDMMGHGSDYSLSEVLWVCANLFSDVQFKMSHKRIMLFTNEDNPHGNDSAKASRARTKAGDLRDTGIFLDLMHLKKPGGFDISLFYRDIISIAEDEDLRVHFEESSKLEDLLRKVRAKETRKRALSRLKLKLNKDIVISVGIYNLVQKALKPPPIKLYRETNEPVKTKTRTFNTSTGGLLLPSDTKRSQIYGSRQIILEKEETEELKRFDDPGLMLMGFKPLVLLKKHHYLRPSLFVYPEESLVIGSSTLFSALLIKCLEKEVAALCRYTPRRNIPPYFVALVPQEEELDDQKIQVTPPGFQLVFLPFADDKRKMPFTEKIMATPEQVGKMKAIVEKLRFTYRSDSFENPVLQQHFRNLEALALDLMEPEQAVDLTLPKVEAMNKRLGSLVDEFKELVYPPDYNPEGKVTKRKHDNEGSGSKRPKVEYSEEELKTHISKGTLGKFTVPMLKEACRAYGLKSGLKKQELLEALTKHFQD
UniProt O43670: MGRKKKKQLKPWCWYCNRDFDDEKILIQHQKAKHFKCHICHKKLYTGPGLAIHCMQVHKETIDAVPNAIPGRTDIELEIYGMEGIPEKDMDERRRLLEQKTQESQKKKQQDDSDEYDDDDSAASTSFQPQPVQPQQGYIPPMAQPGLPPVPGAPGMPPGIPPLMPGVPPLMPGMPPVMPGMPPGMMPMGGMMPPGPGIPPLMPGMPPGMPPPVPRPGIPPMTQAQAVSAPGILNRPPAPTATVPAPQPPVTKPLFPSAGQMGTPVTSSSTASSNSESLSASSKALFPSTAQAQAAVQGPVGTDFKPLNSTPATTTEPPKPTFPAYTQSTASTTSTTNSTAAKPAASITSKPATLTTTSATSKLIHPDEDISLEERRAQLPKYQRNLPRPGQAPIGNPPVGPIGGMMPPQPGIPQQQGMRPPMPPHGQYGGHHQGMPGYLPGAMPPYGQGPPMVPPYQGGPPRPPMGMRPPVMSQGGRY

How the values were obtained:
[1] = molecular target: ATM (endogenous) (human (endogenous in HeLa)) (UniProt Q13315); experiment: co-IP; anti-ATM immunoprecipitation from lysates of HeLa cells (untransfected or transfected with FLAG-Bub3 WT or S135A), Western blot; cells DMSO, nocodazole, mock or IR (6 Gy)
[2] = molecular target: FLAG-Bub3 WT (UniProt O43684); experiment: co-IP; anti-FLAG immunoprecipitation from lysates of HeLa cells transfected with FLAG-Bub3 WT or S135A, Western blot for the endogenous partner; cells untreated, DMSO, nocodazole or IR
[3] = molecular target: FLAG-Bub3 S135A (UniProt O43684); experiment: as above

binding [1] | binding [2] | binding [3] | Substance
 | binds | binds | Bub1 (from UniProt O43683 1-1085) (enzyme)
 | binds |  | DNA-PKcs (from UniProt P78527 1-4128) (enzyme)
binds |  |  | Bub3 (endogenous) (from UniProt O43684 1-328)
binds |  |  | FLAG-Bub3 S135A (from UniProt O43684 1-328)

The next lines start with the substance.

Substance | binding [1] | binding [2] | binding [3]
FLAG-Bub3 WT (from UniProt O43684 1-328) | binds |  | 
Ku80 (from UniProt P13010 1-732) |  | binds | binds
Ku70 (from UniProt P12956 1-609) |  | binds | binds
ZNF207 (endogenous) (from UniProt O43670 1-478) |  | binds | binds
